The record followed here is US20030175730, “Multivalent RNA aptamers and their expression in multicellular organisms” (published 2003).

The target of data set [1] is T1, B52 endogenous/overexpressed (Drosophila melanogaster) (UniProt P26686).
T1 sequence (looked up, limits assumed): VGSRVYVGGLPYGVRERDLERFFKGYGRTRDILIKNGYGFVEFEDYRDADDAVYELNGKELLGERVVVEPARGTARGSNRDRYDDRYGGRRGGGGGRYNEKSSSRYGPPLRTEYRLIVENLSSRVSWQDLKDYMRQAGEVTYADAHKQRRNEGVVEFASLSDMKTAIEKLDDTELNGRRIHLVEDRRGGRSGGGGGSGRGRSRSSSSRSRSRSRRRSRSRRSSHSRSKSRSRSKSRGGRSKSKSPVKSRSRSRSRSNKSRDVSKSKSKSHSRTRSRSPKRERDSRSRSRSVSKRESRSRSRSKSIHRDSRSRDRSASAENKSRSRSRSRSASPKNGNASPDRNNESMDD
As to the kind of experiment: activity in cells. As to conditions: B52 recruited to transgene puff; suppresses B52 overexpression phenotypes in flies; protein in cells; dose not given here.

For data set [2], the target named is T2, B52 (SRp55) full length (Drosophila melanogaster) (UniProt P26686).
T2 sequence (looked up): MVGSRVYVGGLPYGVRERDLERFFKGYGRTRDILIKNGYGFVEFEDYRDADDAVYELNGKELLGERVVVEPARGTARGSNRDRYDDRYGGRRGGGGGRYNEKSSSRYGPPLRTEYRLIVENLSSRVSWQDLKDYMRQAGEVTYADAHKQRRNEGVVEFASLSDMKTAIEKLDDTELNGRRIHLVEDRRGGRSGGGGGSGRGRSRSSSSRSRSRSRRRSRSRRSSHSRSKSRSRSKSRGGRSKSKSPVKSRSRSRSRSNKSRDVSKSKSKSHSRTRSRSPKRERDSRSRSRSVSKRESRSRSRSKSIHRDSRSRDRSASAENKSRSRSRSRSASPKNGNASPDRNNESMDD
As to the kind of experiment: inhibition of the protein. To be noted: inhibits B52-dependent ftz pre-mRNA splicing in S100 extract; restored by extra B52; purified recombinant protein; protein details: baculovirus/Sf9 expressed, SR protein purification; dose not given here.

Data set [3] addresses T2, B52 (SRp55) full length (Drosophila melanogaster). As to the kind of experiment: EMSA. To be noted: purified recombinant protein, protein details: baculovirus/Sf9 expressed, SR protein purification, label: 32P-UTP.

For some assays here: Weaker means in comparison with the reference protein, sequence or condition of that experiment. Tags and fusion partners may be left off the protein sequences shown.

For “GCGGCCGCCUCCGCGGCCGCCUGAUGAGUCCGUGAGGACGAAACAUGCAUGUCGAGAGUACGAUCAACCAGGCGACAGUACUCUCGACGAUCAACCAGGCGACAGUGGCUGGUCAACCAGGCGACCGCCACUGCAGGGUAACGGUCAACCAGGCGACCGUUACCCGGACGGUCAACCAGGCGACCGUUGACUUCGGUCAGUCGAGAUGCAUGUC [mature pentavalent BBS(5) aptamer]”, the “functional effect of the aptamer” value in data set [1] and in data set [2] was “active” each time.

Regarding GGAUGUCAACCAGGCGACAUCC [TransBBS-I], the binding result in data set [3] (poor binding, conserved flanking Gs replaced, variant of BBS-I) is listed as “binds more weakly”.

As to GGACUGUCAACCAGGCGACAGU [bbs-II/5'Stem], the binding result in data set [3] (weak binder, one conserved flanking G, variant of bbs-II) is on record as “binds more weakly”.

For “GGCAUGAAUCAACCAGGCGACGCAUGCC [FlipBBS-II]”, the binding result in data set [3] (poor binding, conserved flanking Gs replaced, variant of BBS-II) is “binds more weakly”.
